Source: article PMC10240701
Results are given in words; binding and its absence hold for the method and conditions named. Binding seen in cells or lysates may run through a third protein. Some entries that bind do so weakly or less than the wild type. Where a sequence is shown, tags or fusion partners need not be part of it.

By UniProt entry, the sequences of proteins in these tests, tags left out. Where a name states a change or a piece, a line headed by the entry shows the natural chain unless it says otherwise.
UniProt P07948: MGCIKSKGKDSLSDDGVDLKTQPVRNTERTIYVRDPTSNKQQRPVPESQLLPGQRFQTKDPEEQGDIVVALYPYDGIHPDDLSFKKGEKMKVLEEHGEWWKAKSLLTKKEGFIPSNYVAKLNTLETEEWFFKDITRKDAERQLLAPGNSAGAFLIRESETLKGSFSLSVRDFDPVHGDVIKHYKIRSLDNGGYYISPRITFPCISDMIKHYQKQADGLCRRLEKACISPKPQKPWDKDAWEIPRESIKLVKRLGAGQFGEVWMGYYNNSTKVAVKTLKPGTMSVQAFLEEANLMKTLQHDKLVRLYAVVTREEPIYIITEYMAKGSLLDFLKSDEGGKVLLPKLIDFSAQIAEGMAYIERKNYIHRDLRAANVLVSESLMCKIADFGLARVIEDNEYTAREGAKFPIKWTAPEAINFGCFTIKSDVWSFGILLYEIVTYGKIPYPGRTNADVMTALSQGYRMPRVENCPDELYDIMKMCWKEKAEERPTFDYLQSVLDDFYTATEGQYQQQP

T1: ASPA full length, expressed in HEK293T cells for domain mapping (tag not stated) (human) (UniProt P45381)
T1 sequence: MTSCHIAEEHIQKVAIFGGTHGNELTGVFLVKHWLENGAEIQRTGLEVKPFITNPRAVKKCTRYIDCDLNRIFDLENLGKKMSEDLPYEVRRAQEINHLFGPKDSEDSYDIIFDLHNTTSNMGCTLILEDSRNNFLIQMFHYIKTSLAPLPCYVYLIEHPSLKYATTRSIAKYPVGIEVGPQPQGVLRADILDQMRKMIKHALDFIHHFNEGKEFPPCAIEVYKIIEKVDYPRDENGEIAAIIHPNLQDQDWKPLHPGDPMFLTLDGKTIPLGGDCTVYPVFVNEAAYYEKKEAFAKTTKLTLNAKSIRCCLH


Experiments:
[1] = target: T1, ASPA full length, expressed in HEK293T cells for domain mapping (tag not stated) (human); assay: co-IP; HEK293T cells cotransfected with the designated plasmids, harvested after 24 h in cold IP lysis buffer; anti-tag antibodies and protein G agarose beads overnight at 4 °C
[2] = target: GST-HA-LYN (human) (UniProt P07948); assay: pull-down; GST or GST-fused protein (from transfected HEK293T) immobilized on glutathione-Sepharose 4B beads, incubated with HEK293T cell lysates overnight at 4 °C; washed three times with low-salt GST buffer; immunoblot; only the target purified
[3] = target: Flag-LYN, expressed in PC-3 cells (human) (UniProt P07948); assay: co-IP; PC-3 cells cotransfected with the designated plasmids, harvested after 24 h in cold IP lysis buffer; anti-tag antibodies and protein G agarose beads overnight at 4 °C

Molecule | binding [1] | further results
LYN (231-512) (from UniProt P07948 231-512) (domain or fragment) | binds | –
LYN (1-230) (from UniProt P07948 1-230) (domain or fragment) | no binding | –
Flag-ASPA, expressed in HEK293T cells (enzyme, UniProt P45381 1-313) MTSCHIAEEHIQKVAIFGGTHGNELTGVFLVKHWLENGAEIQRTGLEVKPFITNPRAVKKCTRYIDCDLNRIFDLENLGKKMSEDLPYEVRRAQEINHLFGPKDSEDSYDIIFDLHNTTSNMGCTLILEDSRNNFLIQMFHYIKTSLAPLPCYVYLIEHPSLKYATTRSIAKYPVGIEVGPQPQGVLRADILDQMRKMIKHALDFIHHFNEGKEFPPCAIEVYKIIEKVDYPRDENGEIAAIIHPNLQDQDWKPLHPGDPMFLTLDGKTIPLGGDCTVYPVFVNEAAYYEKKEAFAKTTKLTLNAKSIRCCLH | – | binding [2]: binds
ASPA co-expressed with Flag-tagged kinases in PC-3 cells (tag not stated) (enzyme, UniProt P45381 1-313) MTSCHIAEEHIQKVAIFGGTHGNELTGVFLVKHWLENGAEIQRTGLEVKPFITNPRAVKKCTRYIDCDLNRIFDLENLGKKMSEDLPYEVRRAQEINHLFGPKDSEDSYDIIFDLHNTTSNMGCTLILEDSRNNFLIQMFHYIKTSLAPLPCYVYLIEHPSLKYATTRSIAKYPVGIEVGPQPQGVLRADILDQMRKMIKHALDFIHHFNEGKEFPPCAIEVYKIIEKVDYPRDENGEIAAIIHPNLQDQDWKPLHPGDPMFLTLDGKTIPLGGDCTVYPVFVNEAAYYEKKEAFAKTTKLTLNAKSIRCCLH | – | binding [3]: binds
